Data from PubChem BioAssay AID192 (DTP/NCI, 2004).
The list is a part of this screen's results and no random one: it is rich in T/C values a quarter to a half above the control, in often repeated tests (any T/C) and in doses without a T/C. Other doses and runs of a compound stand elsewhere. T/C gives the treated animals as a percentage of the vehicle group. Some entries give survivors of the animals treated and no T/C: the source holds a T/C of zero for them, seemingly a mark for toxic or unscored doses. Some survivor counts are full or nearly so, which does not show that the dose was tolerated: survival well below the control is almost never listed, so the zero probably covers shortened survival too. Counts of survivors are from the toxicity check (mostly the fifth day) where no day follows; animals may have died later. Schedule codes are those of the source, taken here to give the interval after Q, in days (D) or hours (H), and the number of doses after X. Some entries were tested several times; the results are listed from low to high. For survival time, the PubChem record calls one and a half times the control and up active, and a quarter to a half above the control has no call in these data; cut-offs in other NCI protocols can differ. Some T/C values carry the count of animals alive at the toxicity check (mostly the fifth day); without a count, all were alive then.

System: BDF1 mice, B16 melanoma ip, median survival T/C
Assay: NCI In Vivo Anticancer Drug Screen. Data for tumor model B16 Melanoma (intraperitoneal) in B6D2F1 (BDF1) mice
Conditions: T/C endpoint: median survival time, higher T/C = longer survival
In short: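 Transplantable tumor model; survival or tumor size measured; reported as T/C, treated over vehicle control.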

[1] = dose: 100.0 mg/kg/injection, schedule: Q01DX009 (ip), vehicle: saline with Tween-80
[2] = dose: 200.0 mg/kg/injection, schedule: Q01DX009 (ip), vehicle: saline with Tween-80
[3] = dose: 200.0 mg/kg/injection, schedule: Q01DX009 (ip), vehicle: saline
[4] = dose: 400.0 mg/kg/injection, schedule: Q01DX009 (ip), vehicle: Klucel (hydroxypropylcellulose) (HPC)
[5] = dose: 400.0 mg/kg/injection, schedule: Q01DX009 (ip), vehicle: saline with Tween-80
[6] = dose: 12.5 mg/kg/injection, schedule: Q01DX009 (ip), vehicle: Klucel (hydroxypropylcellulose) (HPC)
[7] = dose: 50.0 mg/kg/injection, schedule: Q01DX009 (ip), vehicle: Klucel (hydroxypropylcellulose) (HPC)
[8] = dose: 100.0 mg/kg/injection, schedule: Q01DX009 (ip), vehicle: Klucel (hydroxypropylcellulose) (HPC)
[9] = dose: 200.0 mg/kg/injection, schedule: Q01DX009 (ip), vehicle: Klucel (hydroxypropylcellulose) (HPC)

SMILES: CO[C@@]12[C@@H]3N[C@@H]3CN1C1=C(C(=O)C(NCc3ccco3)=C(C)C1=O)[C@@H]2COC(N)=O
- T/C (dose: 2.0 mg/kg/injection, schedule: Q01DX001 (ip), vehicle: distilled water + Tween-80): 143 % of control
- survivor count (dose: 3.0 mg/kg/injection, schedule: Q04DX003 (ip), vehicle: distilled water + Tween-80): 10 of 10
- T/C (dose: 4.0 mg/kg/injection, schedule: Q01DX001 (ip), vehicle: distilled water + Tween-80): 144 % of control
- survivor count (dose: 48.0 mg/kg/injection, schedule: Q04DX003 (ip), vehicle: distilled water + Tween-80): 10 of 10

SMILES: COc1cc2c(cc1O)C(=O)CCCC2
- T/C [1]: 129 % of control
- T/C [2]: 134 % of control [9 of 10 alive]

SMILES: COc1ccc(Br)cc1
- survivor count [2]: 10 of 10

SMILES: O=C1C2C(C(=O)N1c1ccc(OCc3ccccc3)cc1)C1c3ccccc3C2C2CCCCN21 (configuration not stated)
- survivor count (dose: 25.0 mg/kg/injection, schedule: Q01DX009 (ip), vehicle: water): 10 of 10

SMILES: NC(=S)N/N=C/c1ccc(O)cn1
- T/C (dose: 9.4 mg/kg/injection, schedule: Q01DX009 (ip), vehicle: saline with Tween-80): 131 % of control
- T/C (dose: 150.0 mg/kg/injection, schedule: Q01DX009 (ip), vehicle: saline with Tween-80): 126 % of control
- survivor count [3]: 10 of 10 and 6 of 6
- survivor count (dose: 300.0 mg/kg/injection, schedule: Q01DX009 (ip), vehicle: saline with Tween-80): 10 of 10
- survivor count (dose: 400.0 mg/kg/injection, schedule: Q01DX009 (ip), vehicle: saline): 10 of 10 and 6 of 6
- survivor count (dose: 800.0 mg/kg/injection, schedule: Q01DX009 (ip), vehicle: saline): 6 of 6

SMILES: O=C1NC(c2cccc(OCc3ccccc3)c2)Nc2ccccc21 (configuration not stated)
- survivor count [4]: 10 of 10

SMILES: CN1CCN(Cc2c(O)ccc3c4c(c(=O)oc23)CCCC4)CC1
- survivor count (dose: 256.0 mg/kg/injection, schedule: Q01DX009 (ip), vehicle: Klucel (hydroxypropylcellulose) (HPC)): 0 of 5

SMILES: CC(=O)CC(=O)Nc1cc(C)c(NC(=O)CC(C)=O)cc1C
- survivor count [4]: 10 of 10

SMILES: CC[PH+](CC)CC[S-].CC[PH+](CC)CC[S-].[Au+].[Au+]
- survivor count (dose: 80.0 mg/kg/injection, schedule: Q01DX009 (ip), vehicle: Klucel (hydroxypropylcellulose) (HPC)): 0 of 10

SMILES: COC(=O)CC(=O)C=P(c1ccccc1)(c1ccccc1)c1ccccc1
- survivor count [2]: 0 of 10
- survivor count [5]: 0 of 10

SMILES: CCCCCC[N+](CCCCCC)(CCCCCC)CCCCCC
- survivor count (dose: 3.0 mg/kg/injection, schedule: Q01DX009 (ip), vehicle: Klucel (hydroxypropylcellulose) (HPC)): 9 of 10
- survivor count (dose: 6.0 mg/kg/injection, schedule: Q01DX009 (ip), vehicle: Klucel (hydroxypropylcellulose) (HPC)): 7 of 10

SMILES: COC1(OC)C2(Cl)C(Cl)=C(Cl)C1(Cl)C1C(=O)C=CC(=O)C12 (configuration not stated)
- survivor count [6]: 10 of 10
- survivor count [7]: 10 of 10
- survivor count [8]: 10 of 10
- survivor count [9]: 10 of 10

SMILES: CC1Cc2c(Cl)cc(C(=O)NC(Cc3ccccc3)C(=O)O)c(O)c2C(=O)O1 (configuration not stated)
- T/C (dose: 1.0 mg/kg/injection, schedule: Q01DX009 (ip), vehicle: saline with Tween-80): 129 % of control [9 of 10 alive]

SMILES: Cn1ccc(=Nc2ccc(NC(=O)c3ccc(N=c4ccn(C)c5ccc([N+](=O)[O-])cc45)cc3)cc2)cc1
- survivor count (dose: 50.0 mg/kg/injection, schedule: Q01DX009 (ip), vehicle: other): 10 of 10
- survivor count (dose: 100.0 mg/kg/injection, schedule: Q01DX009 (ip), vehicle: other): 8 of 10

SMILES: CS(=O)(=O)OCCC(=O)N1CCN(C(=O)CCOS(C)(=O)=O)CC1
- T/C (dose: 12.5 mg/kg/injection, schedule: Q01DX009 (ip), vehicle: saline with Tween-80): 126 % of control
- T/C (dose: 25.0 mg/kg/injection, schedule: Q01DX009 (ip), vehicle: suspension in saline): 141 % of control
- T/C [1]: 138 % of control
- survivor count [2]: 6 of 6
- survivor count [5]: 5 of 6

SMILES: CCOC(=O)C(=CN1CCCCC1)C(=O)OCC
- survivor count [5]: 5 of 10

SMILES: CC1=Cc2ccc(C)cc2C(=O)C1=O
- survivor count (dose: 3.13 mg/kg/injection, schedule: Q01DX009 (ip), vehicle: Klucel (hydroxypropylcellulose) (HPC)): 0 of 10
- survivor count (dose: 6.25 mg/kg/injection, schedule: Q01DX009 (ip), vehicle: Klucel (hydroxypropylcellulose) (HPC)): 0 of 10
- survivor count [6]: 0 of 10

SMILES: O=CCC(O)C(O)C(O)CO (configuration not stated)
- survivor count (dose: 2400.0 mg/kg/injection, schedule: Q01DX009 (ip), vehicle: suspension in saline): 0 of 10

SMILES: O=[N+]([O-])c1cc(C(F)(F)F)ccc1F
- T/C (dose: 25.0 mg/kg/injection, schedule: Q01DX009 (ip), vehicle: Klucel (hydroxypropylcellulose) (HPC)): 142 % of control
- T/C [7]: 139 % of control
- T/C [8]: 145 % of control
- survivor count [9]: 0 of 10

SMILES: CS(=O)(=O)OCCN(CCOS(C)(=O)=O)c1ccc(/C=N/Nc2ncnc3nc[nH]c23)cc1
- survivor count (dose: 25.0 mg/kg/injection, schedule: Q01DX009 (ip), vehicle: saline): 10 of 10
- survivor count (dose: 50.0 mg/kg/injection, schedule: Q01DX009 (ip), vehicle: saline with Tween-80): 10 of 10
- survivor count (dose: 50.0 mg/kg/injection, schedule: Q01DX009 (ip), vehicle: saline): 10 of 10
- T/C (dose: 50.0 mg/kg/injection, schedule: Q04DX003 (ip), vehicle: saline with Tween-80): 138 % of control
- survivor count (dose: 100.0 mg/kg/injection, schedule: Q01DX009 (ip), vehicle: saline): 10 of 10
- T/C (dose: 100.0 mg/kg/injection, schedule: Q04DX003 (ip), vehicle: saline with Tween-80, evaluated on day 45): 145 % of control
- T/C (dose: 100.0 mg/kg/injection, schedule: Q04DX003 (ip), vehicle: saline with Tween-80, evaluated on day 60): 126 % of control
- survivor count [2]: 10 of 10
- survivor count [3]: 10 of 10
- T/C (dose: 200.0 mg/kg/injection, schedule: Q04DX003 (ip), vehicle: saline with Tween-80, evaluated on day 45): 140 % of control
- T/C (dose: 200.0 mg/kg/injection, schedule: Q04DX003 (ip), vehicle: saline with Tween-80, evaluated on day 60): 128 % of control

SMILES: O=C(CCN1CC1)OCCOC(=O)CCN1CC1
- T/C (dose: 6.0 mg/kg/injection, schedule: Q01DX009 (ip), vehicle: saline): 132 % of control
- T/C (dose: 12.0 mg/kg/injection, schedule: Q01DX009 (ip), vehicle: saline): 127 % of control
- survivor count (dose: 24.0 mg/kg/injection, schedule: Q01DX009 (ip), vehicle: saline): 10 of 10

SMILES: CCCCCCCCCCCCCCCCC(C(=O)O)C(O)(CC(=O)O)C(=O)O (configuration not stated)
- survivor count [7]: 10 of 10

SMILES: COCCOCCN1CCN(CCCN2c3ccccc3Sc3ccc(C(F)(F)F)cc32)CC1
- survivor count (dose: 5.0 mg/kg/injection, schedule: Q01DX009 (ip), vehicle: saline): 9 of 10
- survivor count (dose: 10.0 mg/kg/injection, schedule: Q01DX009 (ip), vehicle: saline): 10 of 10
- survivor count (dose: 20.0 mg/kg/injection, schedule: Q01DX009 (ip), vehicle: saline): 9 of 10

SMILES: Oc1c(CNCCCN2CCCC2)cc(Cl)c2cccnc12
- survivor count [3]: 0 of 10 and 3 of 10
